Data on 16 molecules can be found in paper PMC9088184.

Sequences of proteins named here, by UniProt entry; tags and fusion partners are left off. Residues count along the entry.
UniProt P49841: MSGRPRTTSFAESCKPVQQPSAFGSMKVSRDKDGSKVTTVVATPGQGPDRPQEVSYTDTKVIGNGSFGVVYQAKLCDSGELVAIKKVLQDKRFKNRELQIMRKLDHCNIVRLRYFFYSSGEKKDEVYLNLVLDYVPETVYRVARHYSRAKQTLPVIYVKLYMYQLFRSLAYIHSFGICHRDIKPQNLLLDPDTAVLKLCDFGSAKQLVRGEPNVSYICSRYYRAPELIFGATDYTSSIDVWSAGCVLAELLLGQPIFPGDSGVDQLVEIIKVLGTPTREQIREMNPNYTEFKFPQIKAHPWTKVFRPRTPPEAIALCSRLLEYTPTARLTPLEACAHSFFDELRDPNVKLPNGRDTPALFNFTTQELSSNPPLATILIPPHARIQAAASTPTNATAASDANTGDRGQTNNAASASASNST
UniProt P01040: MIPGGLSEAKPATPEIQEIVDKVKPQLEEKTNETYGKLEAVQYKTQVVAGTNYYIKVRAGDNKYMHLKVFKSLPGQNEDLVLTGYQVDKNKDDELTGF
UniProt P15924: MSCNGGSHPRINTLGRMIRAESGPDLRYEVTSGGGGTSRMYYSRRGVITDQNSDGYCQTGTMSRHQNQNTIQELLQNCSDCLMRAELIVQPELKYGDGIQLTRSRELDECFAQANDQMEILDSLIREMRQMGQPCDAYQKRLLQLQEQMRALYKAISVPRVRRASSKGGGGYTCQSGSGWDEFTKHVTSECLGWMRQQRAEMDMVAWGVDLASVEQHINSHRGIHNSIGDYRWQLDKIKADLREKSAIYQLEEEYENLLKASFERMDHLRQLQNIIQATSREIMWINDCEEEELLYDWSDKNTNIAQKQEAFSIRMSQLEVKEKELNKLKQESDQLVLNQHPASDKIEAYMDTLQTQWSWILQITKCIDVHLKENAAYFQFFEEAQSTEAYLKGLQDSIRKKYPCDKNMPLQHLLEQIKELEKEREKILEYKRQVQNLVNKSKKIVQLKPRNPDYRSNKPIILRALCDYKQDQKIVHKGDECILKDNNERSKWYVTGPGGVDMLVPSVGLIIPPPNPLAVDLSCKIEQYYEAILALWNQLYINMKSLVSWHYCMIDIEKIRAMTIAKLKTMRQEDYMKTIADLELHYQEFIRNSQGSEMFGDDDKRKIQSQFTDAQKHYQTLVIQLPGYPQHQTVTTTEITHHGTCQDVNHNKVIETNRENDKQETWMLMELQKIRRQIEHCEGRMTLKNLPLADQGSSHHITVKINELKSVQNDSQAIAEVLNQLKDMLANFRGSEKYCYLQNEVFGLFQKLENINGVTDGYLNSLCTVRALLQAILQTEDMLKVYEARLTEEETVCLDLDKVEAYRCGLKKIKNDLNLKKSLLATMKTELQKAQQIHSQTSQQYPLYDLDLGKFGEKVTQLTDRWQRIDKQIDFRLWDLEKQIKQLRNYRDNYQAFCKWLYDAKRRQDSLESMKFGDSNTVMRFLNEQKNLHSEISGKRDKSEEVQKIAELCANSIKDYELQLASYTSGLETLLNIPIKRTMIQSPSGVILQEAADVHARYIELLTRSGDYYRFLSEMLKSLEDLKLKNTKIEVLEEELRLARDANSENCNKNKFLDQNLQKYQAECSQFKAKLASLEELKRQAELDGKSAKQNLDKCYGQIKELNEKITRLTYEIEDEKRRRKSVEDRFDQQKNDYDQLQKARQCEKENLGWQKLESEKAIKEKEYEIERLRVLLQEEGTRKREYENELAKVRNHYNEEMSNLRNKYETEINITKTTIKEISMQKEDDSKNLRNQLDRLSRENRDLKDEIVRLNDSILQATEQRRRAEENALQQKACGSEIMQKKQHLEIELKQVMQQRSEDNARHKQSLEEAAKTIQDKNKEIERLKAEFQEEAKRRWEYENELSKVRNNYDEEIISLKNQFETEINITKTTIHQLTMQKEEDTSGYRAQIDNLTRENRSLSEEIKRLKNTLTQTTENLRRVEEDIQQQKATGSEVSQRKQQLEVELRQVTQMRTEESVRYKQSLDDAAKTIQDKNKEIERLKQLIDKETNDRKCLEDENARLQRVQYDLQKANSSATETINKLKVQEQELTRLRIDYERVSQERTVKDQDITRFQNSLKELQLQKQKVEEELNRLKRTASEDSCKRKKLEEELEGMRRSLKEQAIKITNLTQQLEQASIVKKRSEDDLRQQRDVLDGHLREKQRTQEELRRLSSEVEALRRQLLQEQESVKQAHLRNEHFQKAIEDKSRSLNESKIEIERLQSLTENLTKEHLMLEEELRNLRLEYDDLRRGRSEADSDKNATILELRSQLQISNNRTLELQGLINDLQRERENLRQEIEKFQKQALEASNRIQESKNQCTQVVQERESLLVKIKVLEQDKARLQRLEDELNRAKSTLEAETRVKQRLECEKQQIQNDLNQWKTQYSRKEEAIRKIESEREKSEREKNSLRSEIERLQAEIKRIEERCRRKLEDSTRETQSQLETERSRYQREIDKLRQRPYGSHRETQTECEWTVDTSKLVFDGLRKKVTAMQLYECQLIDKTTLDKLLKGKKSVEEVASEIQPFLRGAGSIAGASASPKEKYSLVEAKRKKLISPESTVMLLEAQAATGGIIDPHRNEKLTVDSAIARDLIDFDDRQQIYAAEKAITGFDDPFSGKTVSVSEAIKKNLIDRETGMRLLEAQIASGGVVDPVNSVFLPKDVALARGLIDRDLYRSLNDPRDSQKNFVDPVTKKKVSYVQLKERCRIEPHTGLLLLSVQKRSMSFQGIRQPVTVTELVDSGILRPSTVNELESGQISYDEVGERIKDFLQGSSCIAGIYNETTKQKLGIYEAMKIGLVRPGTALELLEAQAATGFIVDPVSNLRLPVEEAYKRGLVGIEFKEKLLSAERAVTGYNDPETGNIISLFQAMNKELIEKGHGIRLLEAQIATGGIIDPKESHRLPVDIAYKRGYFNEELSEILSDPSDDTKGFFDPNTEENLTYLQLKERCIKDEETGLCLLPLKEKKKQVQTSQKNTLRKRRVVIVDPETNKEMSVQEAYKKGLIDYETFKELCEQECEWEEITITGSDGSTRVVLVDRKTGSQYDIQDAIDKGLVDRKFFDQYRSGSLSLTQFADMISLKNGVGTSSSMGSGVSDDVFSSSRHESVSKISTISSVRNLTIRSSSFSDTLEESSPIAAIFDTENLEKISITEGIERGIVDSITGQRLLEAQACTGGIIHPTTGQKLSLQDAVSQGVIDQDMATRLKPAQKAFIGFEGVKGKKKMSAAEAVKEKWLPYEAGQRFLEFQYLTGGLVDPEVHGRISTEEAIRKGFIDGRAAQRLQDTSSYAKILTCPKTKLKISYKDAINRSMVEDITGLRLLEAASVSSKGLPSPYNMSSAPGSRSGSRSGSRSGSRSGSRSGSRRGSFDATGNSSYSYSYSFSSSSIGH
UniProt P68871: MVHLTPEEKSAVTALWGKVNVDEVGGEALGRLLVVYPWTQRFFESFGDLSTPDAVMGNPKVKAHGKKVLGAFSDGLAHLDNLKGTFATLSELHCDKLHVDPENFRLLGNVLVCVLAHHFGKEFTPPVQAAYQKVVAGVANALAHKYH
UniProt Q9ULV4: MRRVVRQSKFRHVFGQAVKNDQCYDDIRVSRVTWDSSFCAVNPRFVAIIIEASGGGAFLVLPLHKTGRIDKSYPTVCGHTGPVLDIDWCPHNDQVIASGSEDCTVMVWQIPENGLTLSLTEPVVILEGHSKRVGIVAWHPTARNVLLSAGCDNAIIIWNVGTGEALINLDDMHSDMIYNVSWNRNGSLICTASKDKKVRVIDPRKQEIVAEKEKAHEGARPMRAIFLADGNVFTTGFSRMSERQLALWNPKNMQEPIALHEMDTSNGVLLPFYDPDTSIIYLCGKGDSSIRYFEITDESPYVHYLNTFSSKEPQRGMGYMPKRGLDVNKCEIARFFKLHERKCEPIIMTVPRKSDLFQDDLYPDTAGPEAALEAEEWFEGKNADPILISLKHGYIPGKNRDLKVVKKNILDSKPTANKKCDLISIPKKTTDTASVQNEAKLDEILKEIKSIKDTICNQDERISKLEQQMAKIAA
UniProt Q02413, residues 50-1049: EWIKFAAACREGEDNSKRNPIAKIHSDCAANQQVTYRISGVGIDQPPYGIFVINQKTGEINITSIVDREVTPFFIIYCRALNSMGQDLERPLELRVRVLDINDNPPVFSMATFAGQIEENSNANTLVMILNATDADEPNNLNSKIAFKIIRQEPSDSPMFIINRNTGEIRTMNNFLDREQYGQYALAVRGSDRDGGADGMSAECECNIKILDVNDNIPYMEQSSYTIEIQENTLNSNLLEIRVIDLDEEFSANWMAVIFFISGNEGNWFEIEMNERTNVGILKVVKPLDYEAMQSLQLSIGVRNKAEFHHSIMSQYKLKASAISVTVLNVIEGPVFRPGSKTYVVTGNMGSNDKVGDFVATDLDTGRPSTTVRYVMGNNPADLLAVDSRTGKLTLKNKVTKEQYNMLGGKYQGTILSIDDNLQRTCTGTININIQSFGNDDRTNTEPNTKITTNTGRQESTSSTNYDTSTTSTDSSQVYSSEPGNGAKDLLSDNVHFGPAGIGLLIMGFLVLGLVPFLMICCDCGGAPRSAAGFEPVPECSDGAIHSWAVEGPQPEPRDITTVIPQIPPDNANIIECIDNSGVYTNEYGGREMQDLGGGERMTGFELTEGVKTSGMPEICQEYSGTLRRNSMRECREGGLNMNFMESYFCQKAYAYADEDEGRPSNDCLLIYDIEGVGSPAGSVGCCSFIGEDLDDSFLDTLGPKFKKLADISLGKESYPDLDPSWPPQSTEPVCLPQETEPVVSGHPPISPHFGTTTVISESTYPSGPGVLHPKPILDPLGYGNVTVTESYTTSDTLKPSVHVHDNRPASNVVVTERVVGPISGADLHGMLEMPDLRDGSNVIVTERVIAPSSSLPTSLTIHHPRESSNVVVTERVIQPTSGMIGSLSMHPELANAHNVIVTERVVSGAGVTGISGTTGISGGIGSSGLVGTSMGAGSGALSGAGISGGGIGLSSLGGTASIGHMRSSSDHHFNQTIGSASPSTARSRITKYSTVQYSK
UniProt P02768, residues 25-609: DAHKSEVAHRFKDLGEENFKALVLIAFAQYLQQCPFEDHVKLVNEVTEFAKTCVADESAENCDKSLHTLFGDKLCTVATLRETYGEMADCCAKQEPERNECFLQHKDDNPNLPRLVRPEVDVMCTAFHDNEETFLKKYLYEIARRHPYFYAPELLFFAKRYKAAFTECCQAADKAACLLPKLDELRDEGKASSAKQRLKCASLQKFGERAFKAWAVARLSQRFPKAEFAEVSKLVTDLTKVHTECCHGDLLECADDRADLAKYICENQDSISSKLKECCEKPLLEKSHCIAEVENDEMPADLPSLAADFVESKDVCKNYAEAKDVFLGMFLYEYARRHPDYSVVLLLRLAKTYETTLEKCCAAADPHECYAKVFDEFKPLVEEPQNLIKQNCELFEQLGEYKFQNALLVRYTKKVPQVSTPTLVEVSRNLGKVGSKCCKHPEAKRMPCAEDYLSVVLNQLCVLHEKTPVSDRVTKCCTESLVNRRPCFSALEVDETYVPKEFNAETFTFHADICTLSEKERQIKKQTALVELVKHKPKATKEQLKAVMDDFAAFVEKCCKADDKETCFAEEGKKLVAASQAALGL
UniProt P68104: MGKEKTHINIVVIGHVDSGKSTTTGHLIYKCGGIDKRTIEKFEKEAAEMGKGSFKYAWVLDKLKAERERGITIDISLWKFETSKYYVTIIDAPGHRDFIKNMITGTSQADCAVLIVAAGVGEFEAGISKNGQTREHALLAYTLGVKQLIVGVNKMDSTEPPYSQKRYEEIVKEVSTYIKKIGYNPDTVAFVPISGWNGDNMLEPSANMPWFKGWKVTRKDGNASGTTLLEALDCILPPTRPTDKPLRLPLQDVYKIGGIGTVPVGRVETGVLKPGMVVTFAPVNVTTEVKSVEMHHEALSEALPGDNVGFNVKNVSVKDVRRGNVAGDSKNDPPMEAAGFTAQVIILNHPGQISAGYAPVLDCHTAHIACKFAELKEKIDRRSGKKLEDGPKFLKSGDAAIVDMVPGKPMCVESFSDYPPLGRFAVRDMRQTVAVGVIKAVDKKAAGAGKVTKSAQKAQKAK
UniProt P60660: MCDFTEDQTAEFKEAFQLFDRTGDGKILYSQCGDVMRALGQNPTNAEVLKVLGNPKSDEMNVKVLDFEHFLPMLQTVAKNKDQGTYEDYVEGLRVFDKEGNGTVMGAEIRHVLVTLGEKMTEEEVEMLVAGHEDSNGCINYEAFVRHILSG

Results are given in words; binding and its absence hold for the method and conditions named. Binding seen in cells or lysates may run through a third protein. A yes stands for co-enrichment or nearness to the bait. Other partners may have been found.

This assay addresses Glycogen synthase kinase-3β (human (endogenous in MCF-7ADR, 293T, breast cancer tissue)) (UniProt P49841). Nature of the assay: affinity purification with mass spectrometry; GSK3β immunoprecipitated from MCF-7ADR lysate with anti-GSK3β antibody or IgG; LC-MS/MS, Mascot 2.3; candidates with no unique peptide in the IgG sample.

Consider “sp|P01040|CYTA_HUMAN (from UniProt P01040 1-98)”, for which the binding result is on record as “binds”. On to “sp|P15924|DESP_HUMAN (from UniProt P15924 1-2871)”, for which the binding result is on record as “binds”.

On to “sp|P35579|MYH9_HUMAN (from UniProt P35579 1-1960)”, for which the binding entry is listed as “binds”. As to “sp|P68871|HBB_HUMAN (from UniProt P68871 1-147)”, the binding entry is given as “binds”. The value for “sp|Q9ULV4|COR1C_HUMAN (from UniProt Q9ULV4 1-474)” was “binds”; that for “sp|Q02413|DSG1_HUMAN (from UniProt Q02413 50-1049)” was “binds”. Take “tr|A0A0C4DGB6|A0A0C4DGB6_HUMAN (from UniProt P02768 25-609)”: the binding entry is on record as “binds”. To “tr|A0A087WVQ9|A0A087WVQ9_HUMAN (from UniProt P68104 1-462)” belongs “binds”; to “tr|F8VPF3|F8VPF3_HUMAN (from UniProt P60660 1-151)”, “binds”. With “tr|H0YH81|H0YH81_HUMAN (from UniProt P06576 48-529)”, the binding result was “binds”.

B1: sp|P31151|S10A7_HUMAN (protein, UniProt P31151 1-101)
chain: MSNTQAERSIIGMIDMFHKYTRRDDKIEKPSLLTMMKENFPNFLSACDKKGTNYLADVFEKKDKNEDKKIDFSEFLSLLGDIATDYHKQSHGAAPCSGGSQ
Take B1: the binding entry is listed as “binds”.

B2: sp|P06702|S10A9_HUMAN (protein, UniProt P06702 1-114)
chain: MTCKMSQLERNIETIINTFHQYSVKLGHPDTLNQGEFKELVRKDLQNFLKKENKNEKVIEHIMEDLDTNADKQLSFEEFIMLMARLTWASHEKMHEGDEGPGHHHKPGLGEGTP
Regarding B2, the binding entry was “binds”.

B3: sp|P14923|PLAK_HUMAN (protein, UniProt P14923 1-745)
chain: MEVMNLMEQPIKVTEWQQTYTYDSGIHSGANTCVPSVSSKGIMEEDEACGRQYTLKKTTTYTQGVPPSQGDLEYQMSTTARAKRVREAMCPGVSGEDSSLLLATQVEGQATNLQRLAEPSQLLKSAIVHLINYQDDAELATRALPELTKLLNDEDPVVVTKAAMIVNQLSKKEASRRALMGSPQLVAAVVRTMQNTSDLDTARCTTSILHNLSHHREGLLAIFKSGGIPALVRMLSSPVESVLFYAITTLHNLLLYQEGAKMAVRLADGLQKMVPLLNKNNPKFLAITTDCLQLLAYGNQESKLIILANGGPQALVQIMRNYSYEKLLWTTSRVLKVLSVCPSNKPAIVEAGGMQALGKHLTSNSPRLVQNCLWTLRNLSDVATKQEGLESVLKILVNQLSVDDVNVLTCATGTLSNLTCNNSKNKTLVTQNSGVEALIHAILRAGDKDDITEPAVCALRHLTSRHPEAEMAQNSVRLNYGIPAIVKLLNQPNQWPLVKATIGLIRNLALCPANHAPLQEAAVIPRLVQLLVKAHQDAQRHVAAGTQQPYTDGVRMEEIVEGCTGALHILARDPMNRMEIFRLNTIPLFVQLLYSSVENIQRVAAGVLCELAQDKEAADAIDAEGASAPLMELLHSRNEGTATYAAAVLFRISEDKNPDYRKRVSVELTNSLFKHDPAAWEAAQSMIPINEPYGDDMDATYRPMYSSDVPLDPLEMHMDMDGDYPIDTYSDGLRPPYPTADHMLA
On to B3, for which the binding result is recorded as “binds”.

B4: sp|P12273|PIP_HUMAN (protein, UniProt P12273 29-146)
chain: QDNTRKIIIKNFDIPKSVRPNDEVTAVLAVQTELKECMVVKTYLISSIPLQGAFNYKYTACLCDDNPKTFYWDFYTNRTVQIAAVVDVIRELGICPDDAAVIPIKNNRFYTIEILKVE
For the molecule B4, the binding result is recorded as “binds”.

B5: sp|P81605|DCD_HUMAN (protein, UniProt P81605 20-110)
chain: YDPEAASAPGSGNPCHEASAAQKENAGEDPGLARQAPKPRKQRSSLLEKGLDGAKKAVGGLGKLGKDAVEDLESVGKGAVHDVKDVLDSVL
For the molecule B5, the binding result was “binds”.

B6: sp|P29508|SPB3_HUMAN (protein, UniProt P29508 1-390)
chain: MNSLSEANTKFMFDLFQQFRKSKENNIFYSPISITSALGMVLLGAKDNTAQQIKKVLHFDQVTENTTGKAATYHVDRSGNVHHQFQKLLTEFNKSTDAYELKIANKLFGEKTYLFLQEYLDAIKKFYQTSVESVDFANAPEESRKKINSWVESQTNEKIKNLIPEGNIGSNTTLVLVNAIYFKGQWEKKFNKEDTKEEKFWPNKNTYKSIQMMRQYTSFHFASLEDVQAKVLEIPYKGKDLSMIVLLPNEIDGLQKLEEKLTAEKLMEWTSLQNMRETRVDLHLPRFKVEESYDLKDTLRTMGMVDIFNGDADLSGMTGSRGLVLSGVLHKAFVEVTEEGAEAAAATAVVGFGSSPTSTNEEFHCNHPFLFFIRQNKTNSILFYGRFSSP
For B6, the binding entry is given as “binds”.
